Source: publication PMC12217353
Results are given in words; binding and its absence hold for the method and conditions named. Binding seen in cells or lysates may run through a third protein. Some results given as binding are weak or reduced against the parent protein; the word gives no strength. For some assays here: Tags and fused reporters may be left off the sequences shown.

The chains behind the UniProt entries cited, without tags or fusion partners. Where a name states a change or a piece, a line headed by the entry shows the natural chain unless it says otherwise.
UniProt P13569: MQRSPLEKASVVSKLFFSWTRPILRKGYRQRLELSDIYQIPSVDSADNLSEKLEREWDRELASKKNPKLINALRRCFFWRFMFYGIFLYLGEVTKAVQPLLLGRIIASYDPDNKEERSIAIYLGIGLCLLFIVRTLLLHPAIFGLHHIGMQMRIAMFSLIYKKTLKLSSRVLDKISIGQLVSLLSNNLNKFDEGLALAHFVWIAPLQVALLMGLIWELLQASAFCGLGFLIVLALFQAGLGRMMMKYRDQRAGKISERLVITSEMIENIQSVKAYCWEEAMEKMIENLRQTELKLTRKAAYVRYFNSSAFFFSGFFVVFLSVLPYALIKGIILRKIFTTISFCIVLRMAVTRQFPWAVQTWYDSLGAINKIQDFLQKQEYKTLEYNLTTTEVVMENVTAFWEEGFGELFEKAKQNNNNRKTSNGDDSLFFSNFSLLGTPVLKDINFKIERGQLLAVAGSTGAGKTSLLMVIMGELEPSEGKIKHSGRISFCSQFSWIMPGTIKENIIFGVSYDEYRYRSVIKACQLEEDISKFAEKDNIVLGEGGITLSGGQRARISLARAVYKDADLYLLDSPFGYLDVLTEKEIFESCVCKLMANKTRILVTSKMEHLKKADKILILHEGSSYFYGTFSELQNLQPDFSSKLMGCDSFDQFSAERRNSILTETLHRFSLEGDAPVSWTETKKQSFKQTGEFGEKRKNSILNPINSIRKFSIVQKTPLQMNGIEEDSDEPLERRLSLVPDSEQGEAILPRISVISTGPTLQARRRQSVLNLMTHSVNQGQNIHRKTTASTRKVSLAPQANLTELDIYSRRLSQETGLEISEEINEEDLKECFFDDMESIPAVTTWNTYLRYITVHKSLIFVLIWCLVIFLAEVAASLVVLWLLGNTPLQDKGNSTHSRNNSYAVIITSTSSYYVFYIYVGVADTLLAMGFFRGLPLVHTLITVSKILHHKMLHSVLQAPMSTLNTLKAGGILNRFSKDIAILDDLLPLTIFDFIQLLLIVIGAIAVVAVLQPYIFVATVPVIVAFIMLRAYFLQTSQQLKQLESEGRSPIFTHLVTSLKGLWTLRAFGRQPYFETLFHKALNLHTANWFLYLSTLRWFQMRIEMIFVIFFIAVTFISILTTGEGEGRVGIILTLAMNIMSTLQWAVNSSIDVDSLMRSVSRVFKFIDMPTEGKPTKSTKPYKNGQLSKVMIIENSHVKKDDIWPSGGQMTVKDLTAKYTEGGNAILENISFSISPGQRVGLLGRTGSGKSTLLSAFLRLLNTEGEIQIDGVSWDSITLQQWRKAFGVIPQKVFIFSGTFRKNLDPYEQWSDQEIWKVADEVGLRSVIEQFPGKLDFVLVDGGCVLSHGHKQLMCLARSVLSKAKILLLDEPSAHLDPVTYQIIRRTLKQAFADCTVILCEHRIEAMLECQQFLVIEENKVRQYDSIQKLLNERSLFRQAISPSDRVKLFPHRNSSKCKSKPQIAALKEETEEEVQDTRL
UniProt P24588: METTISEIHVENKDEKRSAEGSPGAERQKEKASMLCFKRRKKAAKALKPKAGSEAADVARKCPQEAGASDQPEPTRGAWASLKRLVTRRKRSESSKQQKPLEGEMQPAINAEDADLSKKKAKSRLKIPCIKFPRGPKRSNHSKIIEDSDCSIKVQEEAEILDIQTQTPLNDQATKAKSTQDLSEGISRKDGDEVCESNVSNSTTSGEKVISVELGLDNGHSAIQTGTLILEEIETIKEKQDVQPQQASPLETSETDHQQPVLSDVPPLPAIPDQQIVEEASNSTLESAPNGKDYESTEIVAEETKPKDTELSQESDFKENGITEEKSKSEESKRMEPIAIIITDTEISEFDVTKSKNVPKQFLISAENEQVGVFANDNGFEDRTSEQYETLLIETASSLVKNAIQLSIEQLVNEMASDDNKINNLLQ

Assays:
CFTR-GFP [1] = target: CFTR-GFP (UniProt P13569); assay: condition: only after hydrolysis of PtdSer by PLA1a1-FKBP recruited to FRB with 0.5 µM rapamycin for 8 min; co-IP; lysates of HEK293T cells expressing FRB + PLA1a1-FKBP and treated with 0.5 µM rapamycin for 8 min to hydrolyse plasma membrane PtdSer before lysis; otherwise as the other Co-IP
CFTR-GFP [2] = target: CFTR-GFP (UniProt P13569); assay: co-IP; lysates of transfected HEK293T cells (PBS with 1% Triton X-100, phosphatase and protease inhibitors, pH 7.4); antibodies overnight at 4 °C, Sepharose beads for 4 h, three washes, blots; some cells co-expressing E-Syt3 or E3C2C, or depleted of PI(4,5)P2 (FRB + FKBP-5PIPase, 0.5 µM rapamycin for 8 min)
CFTR(K52A/R55A/R59A) = CFTR(K52A/R55A/R59A) (UniProt P13569); assay: FRET or BRET; live HEK293T cells co-transfected with fluorescent-tagged constructs for 16-18 h; confocal FRET imaging at 37 °C; FRET ratios; some cells stimulated with forskolin/IBMX, co-expressing E-Syt3, ORP5 or ORP8, or depleted of ORP5
CFTR-GFP [3] = target: CFTR-GFP (UniProt P13569); assay: as above
NBCe1-B-eGFP = target: T1, NBCe1-B-eGFP (UniProt Q9Y6R1); assay: as above
T1 sequence: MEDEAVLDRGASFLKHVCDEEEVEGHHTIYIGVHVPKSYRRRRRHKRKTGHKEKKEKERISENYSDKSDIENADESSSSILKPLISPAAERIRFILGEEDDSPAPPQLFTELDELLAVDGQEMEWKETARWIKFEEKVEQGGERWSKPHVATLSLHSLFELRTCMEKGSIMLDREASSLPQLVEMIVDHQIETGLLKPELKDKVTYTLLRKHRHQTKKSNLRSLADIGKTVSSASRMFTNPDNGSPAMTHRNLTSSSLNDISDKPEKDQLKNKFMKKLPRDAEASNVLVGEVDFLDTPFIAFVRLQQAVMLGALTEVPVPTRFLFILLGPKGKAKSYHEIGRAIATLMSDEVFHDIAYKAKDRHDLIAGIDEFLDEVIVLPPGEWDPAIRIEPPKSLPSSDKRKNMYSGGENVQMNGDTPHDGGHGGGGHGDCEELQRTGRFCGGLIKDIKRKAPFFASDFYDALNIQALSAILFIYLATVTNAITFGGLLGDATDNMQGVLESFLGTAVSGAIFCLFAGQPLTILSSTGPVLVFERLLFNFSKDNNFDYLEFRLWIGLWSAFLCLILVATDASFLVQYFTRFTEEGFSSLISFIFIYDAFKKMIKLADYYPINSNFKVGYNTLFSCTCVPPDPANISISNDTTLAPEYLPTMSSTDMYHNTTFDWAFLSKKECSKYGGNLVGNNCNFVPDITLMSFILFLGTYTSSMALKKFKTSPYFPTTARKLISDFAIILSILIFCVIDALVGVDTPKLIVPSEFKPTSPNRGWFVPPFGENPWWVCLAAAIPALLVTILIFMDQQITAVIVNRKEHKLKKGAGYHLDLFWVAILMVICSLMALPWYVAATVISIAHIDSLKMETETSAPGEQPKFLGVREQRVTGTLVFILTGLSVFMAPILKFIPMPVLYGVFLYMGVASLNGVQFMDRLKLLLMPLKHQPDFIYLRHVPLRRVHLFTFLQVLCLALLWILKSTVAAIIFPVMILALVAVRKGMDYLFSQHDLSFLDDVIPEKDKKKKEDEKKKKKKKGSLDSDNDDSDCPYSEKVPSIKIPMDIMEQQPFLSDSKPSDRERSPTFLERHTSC

(Δ1-95)NBCe1-B = target: T2, (Δ1-95)NBCe1-B (UniProt Q9Y6R1); assay: as above
T2 sequence: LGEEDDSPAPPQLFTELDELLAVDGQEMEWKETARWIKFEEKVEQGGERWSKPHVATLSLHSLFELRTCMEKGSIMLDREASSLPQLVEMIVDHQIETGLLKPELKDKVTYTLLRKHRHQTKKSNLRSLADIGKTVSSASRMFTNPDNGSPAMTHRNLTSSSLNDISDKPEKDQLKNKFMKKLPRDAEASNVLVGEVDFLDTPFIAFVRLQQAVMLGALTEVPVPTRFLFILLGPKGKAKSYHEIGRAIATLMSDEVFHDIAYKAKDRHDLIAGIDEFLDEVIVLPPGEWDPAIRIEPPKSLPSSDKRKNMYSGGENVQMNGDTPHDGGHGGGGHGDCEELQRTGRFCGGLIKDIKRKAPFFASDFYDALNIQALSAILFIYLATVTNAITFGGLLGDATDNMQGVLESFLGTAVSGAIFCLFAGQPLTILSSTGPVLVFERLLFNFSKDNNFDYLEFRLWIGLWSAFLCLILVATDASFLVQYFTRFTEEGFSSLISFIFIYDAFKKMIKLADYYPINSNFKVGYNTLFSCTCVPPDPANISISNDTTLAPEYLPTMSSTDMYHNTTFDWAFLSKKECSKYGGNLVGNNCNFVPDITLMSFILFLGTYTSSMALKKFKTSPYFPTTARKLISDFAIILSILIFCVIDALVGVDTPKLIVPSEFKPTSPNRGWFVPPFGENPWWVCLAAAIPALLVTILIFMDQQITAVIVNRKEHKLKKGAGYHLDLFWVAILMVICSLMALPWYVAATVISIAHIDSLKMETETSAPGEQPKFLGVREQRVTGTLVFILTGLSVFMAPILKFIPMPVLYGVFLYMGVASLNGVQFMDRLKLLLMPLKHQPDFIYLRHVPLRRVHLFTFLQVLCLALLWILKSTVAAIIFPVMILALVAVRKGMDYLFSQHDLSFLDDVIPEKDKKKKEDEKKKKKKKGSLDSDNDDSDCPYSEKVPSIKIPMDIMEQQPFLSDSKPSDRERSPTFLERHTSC

NBCe1-B(R44A) = target: T3, NBCe1-B(R44A) (UniProt Q9Y6R1); assay: as above
T3 sequence: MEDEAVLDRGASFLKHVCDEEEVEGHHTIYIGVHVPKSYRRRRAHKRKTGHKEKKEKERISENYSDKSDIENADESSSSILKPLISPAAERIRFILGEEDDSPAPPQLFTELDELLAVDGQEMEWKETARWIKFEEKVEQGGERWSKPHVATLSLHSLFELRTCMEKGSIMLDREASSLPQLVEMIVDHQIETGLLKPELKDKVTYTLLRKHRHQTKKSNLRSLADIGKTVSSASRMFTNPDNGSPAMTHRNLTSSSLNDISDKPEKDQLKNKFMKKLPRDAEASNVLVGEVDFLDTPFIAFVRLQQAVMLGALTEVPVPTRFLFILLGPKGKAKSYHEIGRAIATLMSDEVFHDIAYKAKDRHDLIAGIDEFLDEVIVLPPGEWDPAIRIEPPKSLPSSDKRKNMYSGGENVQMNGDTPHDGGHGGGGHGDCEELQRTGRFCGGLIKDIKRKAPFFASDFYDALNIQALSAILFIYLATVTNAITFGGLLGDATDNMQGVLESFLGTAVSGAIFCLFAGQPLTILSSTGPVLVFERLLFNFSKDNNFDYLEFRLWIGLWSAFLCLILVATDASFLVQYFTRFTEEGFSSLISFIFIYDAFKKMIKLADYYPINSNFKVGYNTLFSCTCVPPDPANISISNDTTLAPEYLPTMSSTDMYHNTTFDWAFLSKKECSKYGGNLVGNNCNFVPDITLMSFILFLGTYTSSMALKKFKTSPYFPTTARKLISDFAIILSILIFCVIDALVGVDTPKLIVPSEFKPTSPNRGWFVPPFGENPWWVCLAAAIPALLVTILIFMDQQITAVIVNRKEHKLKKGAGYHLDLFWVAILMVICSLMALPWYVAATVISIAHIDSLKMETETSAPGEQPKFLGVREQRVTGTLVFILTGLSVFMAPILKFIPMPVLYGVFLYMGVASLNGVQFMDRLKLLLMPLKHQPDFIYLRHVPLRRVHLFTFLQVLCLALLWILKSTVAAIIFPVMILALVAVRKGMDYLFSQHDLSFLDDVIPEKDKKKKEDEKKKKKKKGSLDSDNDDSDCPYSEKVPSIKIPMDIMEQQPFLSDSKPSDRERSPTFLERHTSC

CFTR-GFP [4] = target: CFTR-GFP (UniProt P13569); assay: as above; remark: listed apart in the source

## native AKAP79 (from UniProt P24588 1-427)
CFTR-GFP [1]
  binding: no binding
CFTR-GFP [2]
  binding: binds

## AKAP79-mTurqoise2 (from UniProt P24588 1-427)
CFTR(K52A/R55A/R59A)
  binding: binds
CFTR-GFP [3]
  binding: binds

B1: E-Syt3-mCherry (protein, UniProt A0FGR9 1-886)
chain: MRAEEPCAPGAPSALGAQRTPGPELRLSSQLLPELCTFVVRVLFYLGPVYLAGYLGLSITWLLLGALLWMWWRRNRRGKLGRLAAAFEFLDNEREFISRELRGQHLPAWIHFPDVERVEWANKIISQTWPYLSMIMESKFREKLEPKIREKSIHLRTFTFTKLYFGQKCPRVNGVKAHTNTCNRRRVTVDLQICYIGDCEISVELQKIQAGVNGIQLQGTLRVILEPLLVDKPFVGAVTVFFLQKPHLQINWTGLTNLLDAPGINDVSDSLLEDLIATHLVLPNRVTVPVKKGLDLTNLRFPLPCGVIRVHLLEAEQLAQKDNFLGLRGKSDPYAKVSIGLQHFRSRTIYRNLNPTWNEVFEFMVYEVPGQDLEVDLYDEDTDRDDFLGSLQICLGDVMTNRVVDEWFVLNDTTSGRLHLRLEWLSLLTDQEVLTEDHGGLSTAILVVFLESACNLPRNPFDYLNGEYRAKKLSRFARNKVSKDPSSYVKLSVGKKTHTSKTCPHNKDPVWSQVFSFFVHNVATERLHLKVLDDDQECALGMLEVPLCQILPYADLTLEQRFQLDHSGLDSLISMRLVLRFLQVEERELGSPYTGPEALKKGPLLIKKVATNQGPKAQPQEEGPTDLPCPPDPASDTKDVSRSTTTTTSATTVATEPTSQETGPEPKGKDSAKRFCEPIGEKKSPATIFLTVPGPHSPGPIKSPRPMKCPASPFAWPPKRLAPSMSSLNSLASSCFDLADISLNIEGGDLRRRQLGEIQLTVRYVCLRRCLSVLINGCRNLTPCTSSGADPYVRVYLLPERKWACRKKTSVKRKTLEPLFDETFEFFVPMEEVKKRSLDVAVKNSRPLGSHRRKELGKVLIDLSKEDLIKGFSQWYELTPNGQPRS
NBCe1-B-eGFP
  binding: binds
(Δ1-95)NBCe1-B
  binding: binds
NBCe1-B(R44A)
  binding: binds
CFTR-GFP [4]
  binding: binds
